{"source": "PubChem BioAssay AID1224828 (NIAID, 2016)", "aim": "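Find genes required for NF-kappaB p65 moving into the nucleus after LPS in mouse macrophages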 (primary screen)", "system": "mouse RAW264.7 G9 macrophage reporter cells (GFP-p65, Tnf promoter-mCherry)", "reagents": "siRNA pool against mouse genes, 100 nM", "time to read-out": "2 days siRNA transfection, then 40 min LPS before fixation", "treatment": "LPS (Salmonella minnesota R595) at 10 ng/ml", "measurement": "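Microscopy ratio of nuclear to perinuclear-ring GFP-p65 signal, scaled to the plate median; gene score is the average of two replicate robust z-scores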", "scale": "p65 translocation robust z-score: higher = more nuclear NF-kappaB p65 after LPS than the plate median; nuclear/cytoplasmic p65 ratio: higher = more nuclear NF-kappaB p65", "active means": "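Active if robust z is above 3.3 (negative regulators) or below -1.56, the Tlr4 control median (positive regulators); activity score 50 or more; control wells not called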", "calls": "active = hit (p65 shift raised or lowered); inactive = no clear change", "note": "In all, the deposit lists about 17,000 reagents; shown is an unselected part. 762 of them (4.5%) count as active. 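Active calls include both raised and lowered p65 entry, mostly lowered; wells with fewer than 50 cells lack a z-score.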 Raw values are not corrected between plates. Unmarked entries are inactive."}
{"Target gene": "Gstz1 (GeneID 14874)", "p65 translocation robust z-score": -0.49, "nuclear/cytoplasmic p65 ratio, rep 1": 1.34, "nuclear/cytoplasmic p65 ratio, rep 2": 1.34, "low cell count flag": "enough cells to score"}
{"Target gene": "Sars2 (GeneID 71984)", "p65 translocation robust z-score": 0.81, "nuclear/cytoplasmic p65 ratio, rep 1": 1.55, "nuclear/cytoplasmic p65 ratio, rep 2": 1.29, "low cell count flag": "enough cells to score"}
{"Target gene": "Irgm2 (GeneID 54396)", "p65 translocation robust z-score": -0.5, "nuclear/cytoplasmic p65 ratio, rep 1": 1.58, "nuclear/cytoplasmic p65 ratio, rep 2": 1.56, "low cell count flag": "enough cells to score"}
{"Target gene": "Ccl1 (GeneID 20290)", "p65 translocation robust z-score": -0.55, "nuclear/cytoplasmic p65 ratio, rep 1": 1.48, "nuclear/cytoplasmic p65 ratio, rep 2": 1.73, "low cell count flag": "enough cells to score"}
{"Target gene": "4933427D06Rik (GeneID 232217)", "p65 translocation robust z-score": 1.32, "nuclear/cytoplasmic p65 ratio, rep 1": 1.31, "nuclear/cytoplasmic p65 ratio, rep 2": 1.64, "low cell count flag": "enough cells to score"}
{"Target gene": "Tspyl1 (GeneID 22110)", "nuclear/cytoplasmic p65 ratio, rep 1": 1.86, "nuclear/cytoplasmic p65 ratio, rep 2": 1.46, "low cell count flag": "fewer than 50 cells per well; well left out of scoring"}
{"Target gene": "Or51a43 (GeneID 259125)", "p65 translocation robust z-score": 0.47, "nuclear/cytoplasmic p65 ratio, rep 1": 1.45, "nuclear/cytoplasmic p65 ratio, rep 2": 1.32, "low cell count flag": "enough cells to score"}
{"Target gene": "Tle5 (GeneID 14797)", "p65 translocation robust z-score": 0.3, "nuclear/cytoplasmic p65 ratio, rep 1": 1.61, "nuclear/cytoplasmic p65 ratio, rep 2": 1.77, "low cell count flag": "enough cells to score"}
{"Target gene": "Dtnbp1 (GeneID 94245)", "p65 translocation robust z-score": 0.03, "nuclear/cytoplasmic p65 ratio, rep 1": 1.5, "nuclear/cytoplasmic p65 ratio, rep 2": 1.36, "low cell count flag": "enough cells to score"}
{"Target gene": "Garin5b (GeneID 243822)", "nuclear/cytoplasmic p65 ratio, rep 1": 1.12, "nuclear/cytoplasmic p65 ratio, rep 2": 1.35, "low cell count flag": "fewer than 50 cells per well; well left out of scoring"}
{"Target gene": "Mug2 (GeneID 17837)", "p65 translocation robust z-score": -0.06, "nuclear/cytoplasmic p65 ratio, rep 1": 1.8, "nuclear/cytoplasmic p65 ratio, rep 2": 1.56, "low cell count flag": "enough cells to score"}
{"Target gene": "Stil (GeneID 20460)", "p65 translocation robust z-score": 0.86, "nuclear/cytoplasmic p65 ratio, rep 1": 1.84, "nuclear/cytoplasmic p65 ratio, rep 2": 1.51, "low cell count flag": "enough cells to score"}
{"Target gene": "Esam (GeneID 69524)", "p65 translocation robust z-score": -0.41, "nuclear/cytoplasmic p65 ratio, rep 1": 1.58, "nuclear/cytoplasmic p65 ratio, rep 2": 1.36, "low cell count flag": "enough cells to score"}
{"Target gene": "Peg12 (GeneID 27412)", "p65 translocation robust z-score": -1.39, "nuclear/cytoplasmic p65 ratio, rep 1": 1.17, "nuclear/cytoplasmic p65 ratio, rep 2": 1.16, "low cell count flag": "enough cells to score"}
{"Target gene": "Oas3 (GeneID 246727)", "p65 translocation robust z-score": 0.78, "nuclear/cytoplasmic p65 ratio, rep 1": 1.49, "nuclear/cytoplasmic p65 ratio, rep 2": 1.58, "low cell count flag": "enough cells to score"}
{"Target gene": "Ift46 (GeneID 76568)", "p65 translocation robust z-score": 0.8, "nuclear/cytoplasmic p65 ratio, rep 1": 1.63, "nuclear/cytoplasmic p65 ratio, rep 2": 1.58, "low cell count flag": "enough cells to score"}
{"Target gene": "Meox2 (GeneID 17286)", "p65 translocation robust z-score": 0.85, "nuclear/cytoplasmic p65 ratio, rep 1": 1.52, "nuclear/cytoplasmic p65 ratio, rep 2": 1.48, "low cell count flag": "enough cells to score"}
{"Target gene": "Orc3 (GeneID 50793)", "p65 translocation robust z-score": 0.43, "nuclear/cytoplasmic p65 ratio, rep 1": 1.45, "nuclear/cytoplasmic p65 ratio, rep 2": 1.33, "low cell count flag": "enough cells to score"}
{"Target gene": "Perp (GeneID 64058)", "p65 translocation robust z-score": 0.81, "nuclear/cytoplasmic p65 ratio, rep 1": 1.5, "nuclear/cytoplasmic p65 ratio, rep 2": 1.57, "low cell count flag": "enough cells to score"}
{"Target gene": "Dhx33 (GeneID 216877)", "p65 translocation robust z-score": 1.67, "nuclear/cytoplasmic p65 ratio, rep 1": 1.71, "nuclear/cytoplasmic p65 ratio, rep 2": 1.89, "low cell count flag": "enough cells to score"}
{"Target gene": "Cib1 (GeneID 23991)", "p65 translocation robust z-score": -0.65, "nuclear/cytoplasmic p65 ratio, rep 1": 1.61, "nuclear/cytoplasmic p65 ratio, rep 2": 1.3, "low cell count flag": "enough cells to score"}
{"Target gene": "Or11h7 (GeneID 258295)", "p65 translocation robust z-score": 0.75, "nuclear/cytoplasmic p65 ratio, rep 1": 1.61, "nuclear/cytoplasmic p65 ratio, rep 2": 1.36, "low cell count flag": "enough cells to score"}
{"Target gene": "Klhl17 (GeneID 231003)", "p65 translocation robust z-score": 1.35, "nuclear/cytoplasmic p65 ratio, rep 1": 1.61, "nuclear/cytoplasmic p65 ratio, rep 2": 1.57, "low cell count flag": "enough cells to score"}
{"Target gene": "Ube2d2a (GeneID 56550)", "p65 translocation robust z-score": -0.38, "nuclear/cytoplasmic p65 ratio, rep 1": 1.48, "nuclear/cytoplasmic p65 ratio, rep 2": 1.43, "low cell count flag": "enough cells to score"}
{"Target gene": "Cacng5 (GeneID 140723)", "p65 translocation robust z-score": 0.38, "nuclear/cytoplasmic p65 ratio, rep 1": 1.75, "nuclear/cytoplasmic p65 ratio, rep 2": 1.74, "low cell count flag": "enough cells to score"}
{"Target gene": "Fgd2 (GeneID 26382)", "p65 translocation robust z-score": -1.39, "nuclear/cytoplasmic p65 ratio, rep 1": 1.42, "nuclear/cytoplasmic p65 ratio, rep 2": 1.25, "low cell count flag": "enough cells to score"}
{"Target gene": "Rbbp5 (GeneID 213464)", "p65 translocation robust z-score": 0.73, "nuclear/cytoplasmic p65 ratio, rep 1": 1.53, "nuclear/cytoplasmic p65 ratio, rep 2": 1.71, "low cell count flag": "enough cells to score"}

A stretch taken from the entries so far, as a working copy:
{"Target gene": "Dhx33 (GeneID 216877)", "p65 translocation robust z-score": 1.67, "nuclear/cytoplasmic p65 ratio, rep 1": 1.71, "nuclear/cytoplasmic p65 ratio, rep 2": 1.89, "low cell count flag": "enough cells to score"}
{"Target gene": "Cib1 (GeneID 23991)", "p65 translocation robust z-score": -0.65, "nuclear/cytoplasmic p65 ratio, rep 1": 1.61, "nuclear/cytoplasmic p65 ratio, rep 2": 1.3, "low cell count flag": "enough cells to score"}
{"Target gene": "Or11h7 (GeneID 258295)", "p65 translocation robust z-score": 0.75, "nuclear/cytoplasmic p65 ratio, rep 1": 1.61, "nuclear/cytoplasmic p65 ratio, rep 2": 1.36, "low cell count flag": "enough cells to score"}
